Record: PubChem BioAssay AID1259272 (Sanger Institute, 2017)
Purpose: 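Kinome-wide siRNA search for genes whose silencing boosts targeted drug effects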 (primary screen). System: SW1116 human colorectal cancer cells. Reagent: siRNA pool against human genes. Conditions: anchor drugs BYL719 (1 µM), cetuximab (5 µg/ml) or trametinib (10 nM), or DMSO vehicle; exposure length not given. Measurement: 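Cell survival as a fraction of wells given a non-targeting pool, averaged over replicates; robust z-score without drug; synergy score for each of BYL719, cetuximab and trametinib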. Direction: viability z-score, no drug: higher = more cells remaining; strongly negative means essential gene. Hit rule: 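a robust z-score under -3 with siRNA and no drug marks the gene essential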. Meaning of the calls: active = essential (knock-down alone); inactive = no change.
This is an unselected part of 794 deposited reagents. 7 of them (0.88%) were called active. 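Essential calls reflect knock-down without drug only, not synergy with drugs; drug exposure length not given.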 Not all columns of the deposit are shown. No sequences are given here. The record does not give: the amount of reagent, the time to read-out.

Which result is listed for IRAK4 (interleukin 1 receptor associated kinase 4)?
viability z-score, no drug: -1.79; activity call: inactive

Which result is listed for NEK9 (NIMA related kinase 9)?
viability z-score, no drug: 0.842; activity call: inactive

With EPHA1 (EPH receptor A1), how do the results read?
viability z-score, no drug: 0.842; activity call: inactive

For SMC1A (structural maintenance of chromosomes 1A), what does the deposit list?
viability z-score, no drug: -1.35; activity call: inactive

How did the screen score MAP2K7 (mitogen-activated protein kinase kinase 7)?
viability z-score, no drug: -0.814; activity call: inactive

What did the screen give for ITK (IL2 inducible T cell kinase)?
viability z-score, no drug: 0.842; activity call: inactive

How did the screen score PTPN11 (protein tyrosine phosphatase non-receptor type 11)?
viability z-score, no drug: -0.229; activity call: inactive

For IP6K2 (inositol hexakisphosphate kinase 2), what does the deposit list?
viability z-score, no drug: -0.21; activity call: inactive

For AK7 (adenylate kinase 7), what does the deposit list?
viability z-score, no drug: 0.842; activity call: inactive

For IKBKE (inhibitor of nuclear factor kappa B kinase subunit epsilon), what was measured?
viability z-score, no drug: 0.842; activity call: inactive

With CDK12 (cyclin dependent kinase 12), how do the results read?
viability z-score, no drug: -0.586; activity call: inactive

What is on record for BCR (BCR activator of RhoGEF and GTPase)?
viability z-score, no drug: 0.842; activity call: inactive

For TEK (TEK receptor tyrosine kinase), how do the results read?
viability z-score, no drug: 0.842; activity call: inactive

Which result is listed for NTRK3 (neurotrophic receptor tyrosine kinase 3)?
viability z-score, no drug: 0.842; activity call: inactive

For DLG1 (discs large MAGUK scaffold protein 1), what does the deposit list?
viability z-score, no drug: 0.477; activity call: inactive

For CHEK2 (checkpoint kinase 2), what was measured?
viability z-score, no drug: 0.689; activity call: inactive

How did the screen score PANK2 (pantothenate kinase 2)?
viability z-score, no drug: 0.842; activity call: inactive

How did the screen score KSR1 (kinase suppressor of ras 1)?
viability z-score, no drug: -2.82; activity call: inactive

With BMPR1A (bone morphogenetic protein receptor type 1A), how do the results read?
viability z-score, no drug: 0.842; activity call: inactive

For BMPR1B (bone morphogenetic protein receptor type 1B), what does the deposit list?
viability z-score, no drug: 0.842; activity call: inactive

How did the screen score EPHA7 (EPH receptor A7)?
viability z-score, no drug: 0.0124; activity call: inactive

With DCLK1 (doublecortin like kinase 1), how do the results read?
viability z-score, no drug: 0.0186; activity call: inactive

For PRKAR2B, what was measured?
viability z-score, no drug: -2.34; activity call: inactive

What did the screen give for RUNX1 (RUNX family transcription factor 1)?
viability z-score, no drug: -1.35; activity call: inactive

With TCF12 (transcription factor 12), how do the results read?
viability z-score, no drug: -0.725; activity call: inactive

Which result is listed for IRAK3 (interleukin 1 receptor associated kinase 3)?
viability z-score, no drug: -1.86; activity call: inactive

With EPHA8 (EPH receptor A8), how do the results read?
viability z-score, no drug: 0.363; activity call: inactive

With DUSP21 (dual specificity phosphatase 21), how do the results read?
viability z-score, no drug: 0.784; activity call: inactive

Reformatted: entries from further up
target | viability z-score, no drug | activity call
ITK (IL2 inducible T cell kinase) | 0.842 | inactive
PTPN11 (protein tyrosine phosphatase non-receptor type 11) | -0.229 | inactive
IP6K2 (inositol hexakisphosphate kinase 2) | -0.21 | inactive
AK7 (adenylate kinase 7) | 0.842 | inactive
IKBKE (inhibitor of nuclear factor kappa B kinase subunit epsilon) | 0.842 | inactive
